Results deposited as PubChem BioAssay AID504808 (Drosophila RNAi Screening Center, 2011)
Aim: 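Genes whose loss lifts activity of an E2F-responsive reporter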 (primary screen). System: Drosophila S2 cells. Reagent: long dsRNA against Drosophila genes. Read-out: 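Dual luciferase plate measurements; E2F-specific signal taken as firefly over Renilla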. Direction: E2F firefly: higher = more E2F reporter activity; Renilla normaliser: higher = more normaliser reporter signal. Hit rule: 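a knock-down counted as active when the firefly/Renilla E2F signal rose above 50%, a threshold chosen arbitrarily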.
In all, the deposit lists about 21,000 reagents; this is an unselected part of those with a known target gene and a result. Of all reagents, 18 (0.084%) are marked active. 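Raw counts without plate normalisation, one of two replicates; the ratio scores behind the calls were not deposited.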 Reagents against one gene are numbered here. Names joined by + are all predicted targets of the reagent. The record does not give: the amount of reagent, the time to read-out.

target gene	reagent no.	E2F firefly, rep 1	Renilla normaliser, rep 1	Call
scny	1	83476	3904	inactive
scny	2	77561	2927	inactive
nxf2	1	78699	3441	inactive
CG8892	1	94531	4197	inactive
COX5A	1	1.46e5	6142	inactive
chas	1	2.70e5	7805	inactive
chas	2	2.56e5	7694	inactive
CG3065	1	74691	2971	inactive
Tg	1	1.55e5	5048	inactive
CG13041	1	1.69e5	9401	inactive
CG32945	1	98779	4119	inactive
Nup43	1	1.17e5	6306	inactive
CG34462	1	91866	3655	inactive
CG3165	1	81730	3581	inactive
Aduk	1	1.19e5	5570	inactive
CG14687	1	1.50e5	7079	inactive
CG18538	1	1.40e5	5364	inactive
CG12994	1	82916	3299	inactive
CG12994	2	1.13e5	4655	inactive
Loxl1	1	52961	4511	inactive
CG15225	1	1.07e5	4485	inactive
sgg	1	82155	2417	inactive
sgg	2	86919	2581	inactive
sgg	3	1.20e5	5540	inactive
CG13877 + pyx	1	1.03e5	4312	inactive
CG15082	1	1.44e5	4842	inactive
l(2)dtl	1	95278	2936	inactive
Zip71B	1	1.65e5	8004	inactive
CG15099	1	75795	3694	inactive
et	1	1.39e5	6112	inactive
CG33322	1	1.06e5	4032	inactive
Lamtor4	1	93528	4071	inactive
CG18745	1	1.48e5	7619	inactive
CG3356	1	96804	3827	inactive

5 entries from above, ordered by “Renilla normaliser, rep 1”, ascending.
target gene	reagent no.	E2F firefly, rep 1	Renilla normaliser, rep 1	Call
scny	2	77561	2927	inactive
nxf2	1	78699	3441	inactive
CG8892	1	94531	4197	inactive
COX5A	1	1.46e5	6142	inactive
chas	1	2.70e5	7805	inactive
